Assay results

The results are deposited in PubChem (AID912; NCATS, 2007).

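Uptake of anthrax lethal toxin into cultured cells, read by FRET (460/530 nm ratio) and reported from the 460 nm channel; the cell line is not named here. Each compound was tested as a concentration series from about 0.0005 to 40 µM. The number is the fitted AC50 of the 460 nm signal alone; lower values mean a more potent effect. A falling signal goes with compounds filed as inhibitors or cytotoxic, a rising one with activators or fluorescent compounds (inferred from the filed classes).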

Values are in nM. Common to all entries: measured here: 460 nm channel. Part of the compounds only, not a random draw; the main read-out is not listed here. Potencies fitted to partial, single-point or poorly fitting curves are rough. The first word of each remark tells which way the curve ran; it can be opposite to the aim of the assay.

SMILES | AC50 (nM) | remark
Cn1c(=O)c(-c2ccccc2)nc2cnc(N3CCOCC3)nc21 | 10000 | rising, partial curve
C/C(Cl)=C/Cn1c(SCc2ccc(Cl)cc2)nc2c1c(=O)[nH]c(=O)n2C | 5012 | rising, single point
CC1Cc2ccccc2N1C(=O)CSc1nc2ccccc2o1 (stereo unspecified) | 3981 | rising, single point
CN=C(NC#N)NCCSCc1csc(N=C(N)N)n1 | 12589 | falling, single point
CC(=O)N[C@H](c1ccccc1)[C@@]1(C)C[C@@H]1[C@@H](C)C(=O)Nc1ccc2ccccc2c1 | 12589 | falling, partial curve
C[N+]1=Cc2cc3c(cc2CC1)OCO3 | 1259 | rising, partial curve, poor fit
O=c1ccc(=O)[nH][nH]1 | 1585 | falling, partial curve
CCNc1ncc2nc(-c3cccc(C#N)c3)c(=O)n(CCC#N)c2n1 | 2512 | rising, full curve
CCOC(=O)N1CCC(NC(=O)Cn2cccc2C(=O)c2ccccc2)CC1 | 5012 | rising, single point
COc1ccc(S(=O)(=O)CCC(=O)NCCc2ccc(S(N)(=O)=O)cc2)cc1 | 5012 | rising, single point
Cn1c(=O)c(-c2ccccc2)nc2cnc(OCc3ccccc3)nc21 | 158.5 | falling, full curve
COc1ccc2[nH]cc(CCNc3nc(-c4c(C)noc4C)nc4ccccc34)c2c1 | 25118 | falling, single point
Cc1ccc(C)c(N2CCN(C(=O)CCCOc3cc(=O)n(C)c4ccccc34)CC2)c1 | 10000 | falling, partial curve
COc1ccc(C(c2nnnn2Cc2ccccc2)N2CCN(c3nc4ccccc4s3)CC2)cc1 (stereo unspecified) | 10000 | falling, partial curve
CCOC(=O)C(C)Oc1ccc(C2NC(=O)NC(C)=C2C(=O)Nc2ccccc2C)cc1 (stereo unspecified) | 125.9 | falling, full curve, poor fit
CN1C(=O)C(O)(CC(=O)c2ccccn2)c2cc(Br)ccc21 (stereo unspecified) | 12589 | falling, partial curve
CCCn1c(SCc2ccccn2)nc2c1c(=O)n(C)c(=O)n2C | 794.3 | rising, full curve, poor fit
O=c1c(-c2cccc(F)c2)nc2cncnc2n1Cc1ccccc1 | 10000 | rising, single point
COc1ccc(-c2cc(C(=O)N3CCOCC3)no2)cc1OC | 31622 | falling, partial curve, poor fit
Cc1ccc(-n2c(SCc3cc(=O)n4ccsc4n3)nnc2-c2cccnc2)c(C)c1 | 1259 | rising, full curve, poor fit
Cc1nc2c(c(=O)n1Cc1ccco1)c1nc3ccccc3nc1n2Cc1ccccc1 | 125.9 | falling, full curve, poor fit
COc1ccc(S(=O)(=O)N(CC(=O)N2CCN(c3ccccc3OC)CC2)c2ccccc2)cc1 | 12589 | falling, partial curve
O=C1C=C(NCCO)C(=O)c2cnccc21 | 31622 | falling, single point
N#CCSc1nnc(COc2cccc3ccccc23)n1-c1ccccc1 | 12589 | falling, partial curve
Cc1sc2c(c1C)CN(Cc1ccco1)CN2C(=O)c1ccccc1 | 10000 | falling, partial curve
Cn1c(NC(=O)c2cccs2)c(-c2cccs2)c(=O)c2ccccc21 | 5012 | rising, partial curve, poor fit
CCCCOCCOCCOCc1cc2c(cc1CCC)OCO2 | 31622 | falling, single point
Cc1ccc(N(CC(=O)NC2CCCC2)C(=O)CCCC(=O)Nc2ccccn2)cc1C | 316.2 | rising, full curve, poor fit
CC1=C(C(=O)OCc2ccccc2)C(c2ccc(C3CCCCC3)cc2)NC(=O)N1CCCCCC(=O)O (stereo unspecified) | 2512 | rising, full curve, poor fit
CCC/C(=N\O)c1c[nH]c2ccccc12 | 31622 | falling, partial curve
O=C(Cn1c(=O)oc2cc(S(=O)(=O)N3CCc4ccccc43)ccc21)NC1CCCC1 | 6310 | falling, partial curve
Cn1c(=O)c2c(nc(CN3CCc4ccccc4C3)n2Cc2ccccc2F)n(C)c1=O | 19952 | rising, single point
CCOC(=O)C(C)(C)[C@H](O)C(C)C | 3981 | falling, single point
O=C(Cn1cc2c(n1)CCCCC2)N1CCc2ccccc21 | 5012 | falling, partial curve
O=c1cnc2cncnc2n1Cc1ccc(F)cc1 | 3981 | falling, full curve

Once more, the final 3:

| SMILES | AC50 (nM) | remark |
|---|---|---|
| `CCOC(=O)C(C)(C)[C@H](O)C(C)C` | 3981 | falling, single point |
| `O=C(Cn1cc2c(n1)CCCCC2)N1CCc2ccccc21` | 5012 | falling, partial curve |
| `O=c1cnc2cncnc2n1Cc1ccc(F)cc1` | 3981 | falling, full curve |